Test results: PubChem BioAssay AID540303 (National Center for Advancing Translational Sciences (NCATS), 2011)
Among all 330,000 compounds or so, about 1,000 (0.3%) were called active. The shares of active, inactive and inconclusive entries below differ from those in the screen. Calls come from the whole dose curve; as a rule, active = well fitted inhibition curve with a large enough effect; inconclusive = small, poorly fitted or top-dose-only effect; inactive = no such curve, though single readings can be large or run the other way; tested in mouse RAW 264.7 cells. Potencies beside an inconclusive call are fits to weak or partial responses and may not hold up.

Test: qHTS for Inhibitors of Cell Surface uPA Generation; note: nearly all actives have a fitted effect of over 55% in size
Conditions: cell surface uPA generation assay; series mostly up to 38.3 µM
Method in brief: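 Murine RAW 264.7 cells are treated for 24 h with compound up to 38.3 uM final. Cell ATP, measured by ATP-Lite, remains high if blocking the uPA cascade prevents LF from reaching the cytoplasm.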
Potency is the fitted concentration of half-maximal effect.

SMILES | Potency
CCOc1ccc(NC(=O)CSc2ccc(-c3ccco3)nn2)cc1 | inactive
Cc1cccc(OCC(=O)O/N=C(\N)Cc2ccc([N+](=O)[O-])cc2)c1 | inconclusive: 1 µM [inhibitor, partial curve, poor fit]
Cc1cc(C)c2c(=O)n(CC(=O)NCCCN3CCN(c4ccccc4F)CC3)sc2n1 | inconclusive: 11.2 µM [inhibitor, single point]
Brc1ccc2nc(-c3c[nH]c4ccccc34)cn2c1 | inconclusive: 7.08 µM [inhibitor, partial curve, poor fit]
Cc1ccc(NC(=S)c2ccncc2)c(C)c1 | inconclusive: 8.91 µM [inhibitor, single point]
Cc1noc(C)c1C(=O)N1CCN(S(=O)(=O)c2cccs2)CC1 | inactive
CCc1ccc(CN2CCCC(C(=O)Nc3ccccc3-c3ccc(OC)cc3)C2)o1 (centres undefined) | inconclusive: 7.94 µM [inhibitor, partial curve]
O=C1CC(c2cccc([N+](=O)[O-])c2)c2cc3c(cc2N1)CCC3 (centres undefined) | inconclusive: 3.98 µM [inhibitor, partial curve, poor fit]
COc1ccc(C(=O)NC(=O)Nc2cc(C)ccn2)cc1 | inconclusive: 0.631 µM [inhibitor, full curve]
C=CCC1C=C(Cc2ccccc2)CC(CC=C)N1 (centres undefined) | inconclusive: 0.0079 µM [inhibitor, full curve, poor fit]
COc1ccc(C(=O)Oc2ccc3oc(=O)sc3c2)cc1 | inactive
COc1cc(/C=C/C(=O)c2ccc3c(c2)OCO3)cc(OC)c1OC | inconclusive: 10 µM [inhibitor, partial curve, poor fit]
Cc1ccc(NC(=O)C2CCN(S(=O)(=O)c3cc([N+](=O)[O-])ccc3Cl)CC2)nc1 | inconclusive: 6.31 µM [inhibitor, partial curve, poor fit]
Cc1cc(O)c(C(C)C)cc1N=Cc1ccc(N(C)C)cc1 | inconclusive: 7.94 µM [inhibitor, partial curve, poor fit]
CCOC(=O)c1c(NC(=O)CCS(=O)(=O)c2ccccc2)sc2c1CCN(C)C2 | inconclusive: 10 µM [inhibitor, partial curve, poor fit]
Cc1ccc(NC(=O)C2CSC3(C)CCC(=O)N23)cc1S(=O)(=O)N1CCCCCC1 (centres undefined) | inconclusive: 2 µM [inhibitor, full curve, poor fit]
Cc1nn(-c2ccccc2)c(C)c1Cc1ccc(O)cc1 | inactive
CC(=O)Nc1cccc(NC(=O)c2ccc(Br)cc2)c1 | inactive
COc1ccc(OC)c(/C=C/C(=O)c2ccc3c(c2)OCO3)c1 | inconclusive: 14.1 µM [inhibitor, partial curve, poor fit]

In a second layout: 2 of the compounds above.
SMILES	Potency
COc1ccc(C(=O)Oc2ccc3oc(=O)sc3c2)cc1	inactive
COc1cc(/C=C/C(=O)c2ccc3c(c2)OCO3)cc(OC)c1OC	inconclusive: 10 µM [inhibitor, partial curve, poor fit]
